From publication PMC11079228
These are yes or no findings as the source states them, for the method shown. Binding seen in cells or lysates may run through a third protein. These calls come from enrichment with a bait or labelling near it, and not all partners need be listed.

B1: LAMP2 (protein, UniProt P17046 27-411)
chain: LKLNLTDSKGTCLYAEWEMNFTITYEALKVNETVTITVPDKVTYNGSSCGDDKNGAKIMIQYGSTLSWAVNFTKEASQYFINNITLSYNTNDTKTFPGAVPKGILTVIIPVGSQLPLGVIFKCSSVLTFNLSPVVQHYWGIHLQAFVQNGTVSKHEQVCKEDKTATTVAPIIHTTVPSPTTTLTPTSIPVPTPTVGNYTISNGNATCLLATMGLQLNITEEKVPFIFNINPAITNFTGSCQPQTAQLRLNNSQIKYLDFIFAVKNEKRFYLKEVNVNMYLANGSAFHVSNNNLSFWDAPLGSSYMCNKEQVVSVSRTFQINTFNLKVQPFNVTKGEYSTAQDCSADEDNFLVPIAVGAALGGVLILVLLAYFIGLKRHHTGYEQF
B2: FLOT2 (protein, UniProt Q9Z2S9 1-428)
chain: MGNCHTVGPNEALVVSGGCCGSDYKQYVFGGWAWAWWCISDTQRISLEIMTLQPRCEDVETAEGVALTVTGVAQVKIMTEKELLAVACEQFLGKNVQDIKNVVLQTLEGHLRSILGTLTVEQIYQDRDQFAKLVREVAAPDVGRMGIEILSFTIKDVYDKVDYLSSLGKTQTAVVQRDADIGVAEAERDAGIREAECKKEMLDVKFMADTKIADSKRAFELQKSAFSEEVNIKTAEAQLAYELQGAREQQKIRQEEIEIEVVQRKKQIAVEAQEILRTDKELIATVRRPAEAEAHRIQQIAEGEKVKQVLLAQAEAEKIRKIGEAEAAVIEAMGKAEAERMKLKAEAYQKYGDAAKMALVLEALPQIAAKISAPLTKVDEIVVLSGDNSKVTSEVNRLLAELPASVHALTGVDLSKIPLIKNATGAQV
B3: PSMA3 (protein, UniProt P18422 1-255)
chain: MSSIGTGYDLSASTFSPDGRVFQVEYAMKAVENSSTAIGIRCKDGVVFGVEKLVLSKLYEEGSNKRLFNVDRHVGMAVAGLLADARSLADIAREEASNFRSNFGYNIPLKHLADRVAMYVHAYTLYSAVRPFGCSFMLGSYSVNDGAQLYMIDPSGVSYGYWGCAIGKARQAAKTEIEKLQMKEMTCRDVVKEVAKIIYIVHDEVKDKAFELELSWVGELTKGRHEIVPKDVREEAEKYAKESLKEEDESDDDNM
B4: DNM1 (protein, UniProt P21575 1-864)
chain: MGNRGMEDLIPLVNRLQDAFSAIGQNADLDLPQIAVVGGQSAGKSSVLENFVGRDFLPRGSGIVTRRPLVLQLVNSTTEYAEFLHCKGKKFTDFEEVRLEIEAETDRVTGTNKGISPVPINLRVYSPHVLNLTLVDLPGMTKVPVGDQPPDIEFQIRDMLMQFVTKENCLILAVSPANSDLANSDALKIAKEVDPQGQRTIGVITKLDLMDEGTDARDVLENKLLPLRRGYIGVVNRSQKDIDGKKDITAALAAERKFFLSHPSYRHLADRMGTPYLQKVLNQQLTNHIRDTLPGLRNKLQSQLLSIEKEVDEYKNFRPDDPARKTKALLQMVQQFAVDFEKRIEGSGDQIDTYELSGGARINRIFHERFPFELVKMEFDEKELRREISYAIKNIHGIRTGLFTPDLAFEATVKKQVQKLKEPSIKCVDMVVSELTSTIRKCSEKLQQYPRLREEMERIVTTHIREREGRTKEQVMLLIDIELAYMNTNHEDFIGFANAQQRSNQMNKKKTSGNQDEILVIRKGWLTINNIGIMKGGSKEYWFVLTAENLSWYKDDEEKEKKYMLSVDNLKLRDVEKGFMSSKHIFALFNTEQRNVYKDYRQLELACETQEEVDSWKASFLRAGVYPERVGDKEKASETEENGSDSFMHSMDPQLERQVETIRNLVDSYMAIVNKTVRDLMPKTIMHLMINNTKEFIFSELLANLYSCGDQNTLMEESAEQAQRRDEMLRMYHALKEALSIIGDINTTTVSTPMPPPVDDSWLQVQSVPAGRRSPTSSPTPQRRAPAVPPARPGSRGPAPGPPPAGSALGGAPPVPSRPGASPDPFGPPPQVPSRPNRAPPGVPSRSGQASPSRPESPRPPFDL
B5: PSMA2 (protein, UniProt P17220 1-234)
chain: MAERGYSFSLTTFSPSGKLVQIEYALAAVAGGAPSVGIKAANGVVLATEKKQKSILYDERSVHKVEPITKHIGLVYSGMGPDYRVLVHRARKLAQQYYLVYQEPIPTAQLVQRVASVMQEYTQSGGVRPFGVSLLICGWNEGRPYLFQSDPSGAYFAWKATAMGKNYVNGKTFLEKRYNEDLELEDAIHTAILTLKESFEGQMTEDNIEVGICNEAGFRRLTPTEVRDYLAAIA
B6: PRDX4 (protein, UniProt Q9Z0V5 41-273)
chain: ESDDRFRTRENECHFYAGGQVYPGEVSRVSVADHSLHLSKAKISKPAPYWEGTAVINGEFKELKLTDYRGKYLVFFFYPLDFTFVCPTEIIAFGDRIEEFKSINTEVVACSVDSQFTHLAWINTPRRQGGLGPIRIPLLSDLNHQISKDYGVYLEDSGHTLRGLFIIDDKGVLRQITLNDLPVGRSVDETLRLVQAFQYTDKHGEVCPAGWKPGSETIIPDPAGKLKYFDKLN
B7: PURA (protein, UniProt P86252 1-138)
chain: FLKIAEVGAGGNKLTLSMSVAVEFRDYLGDFIEHYAQLGPSQPPDLAQAQDEPRYYMDLKENQRGPGLGSTQGQTIALPAQGLIEFRLIDDYGVEEEPAELPEGTSLTVDNKRFFFDVGSNKVSEVKPTYRFGHTFCK
B8: WDR1 (protein, UniProt Q5RKI0 1-606)
chain: MPYEIKKVFASLPQVERGVSKILGGDPKGDNFLYTNGKCVILRNIDNPAVADIYTEHAHQVVVAKYAPSGFYIASGDISGKLRIWDTTQKEHILKYEYQPFAGKIKDIAWTEDSKRIAVVGEGREKFGAVFLWDTGSSVGEITGHNKVINSVDIKQNRPYRLATGSDDNCAAFFEGPPFKFKFTIGDHSRFVNCVRFSPDGNRFATASADGQIFIYDGKTGEKVCALGGSKAHDGGIYAISWSPDSTHLLSASGDKTSKIWDVNVNSVVSTFPMGSNVLDQQLGCLWQKDHLLSISLSGYINYLDKNNPSKPLRVIKGHSKSIQCLTVHKNGGKSYIYSGSHDGHINYWDSETGENDSFSGKGHTNQVSRMTVDESGQLVSCSMDDTVRYTNLTLRDYSGQGVVKLDVQPKCVAVGPGGYTVVVCIGQIVLLKDQKKCFSIDNPGYEPEVVAVHPGGDTVAVGGSDGNVRVYSILGATLKDEGKLLEAKGPVTDLAYSHDGAFLAVCDASKVVTVFSVADGYSENNVFYGHHAKIVCLAWSPDNEHFASGGMDMMVYVWTLSDPETKVKIQDAHRLHHVSSLAWLDEHTLVTTSHDASVKEWTITY
B9: ATG7 (protein, UniProt Q641Y5 1-698)
chain: MGDPGLSKLQFAPFNSALDVGFWHELTQKKLNEYRLDEAPKDIKGYYYNGDSAGLPTRLTLEFSAFDMSAPTPARCCPAMGTLHNTNTLEAFKTADKKLLLEQSANEIWEAIKSGAALENPMLLNKFLLLTFADLKKYHFYYWFCCPALCLPESIPLIRGPVGLDQRLSPKQIQALEHAYDDLCRTEGVTALPYFLFKYDDDTVLVSLLKHYSDFFQGQRTKLTVGVYDPCNLTQHPGWPLRNFLVLAAHRWSGSFQSVEVLCFRDRTMQGARDVTHSIIFEVKLPEMAFSPDCPKAVGWEKNQKGGMGPRMVNLSGCMDPKRLAESSVDLNLKLMCWRLVPTLDLDKVVSVKCLLLGAGTLGCNVARTLMGWGVRHVTFVDNAKISYSNPVRQPLYEFEDCLGGGKPKALAAAERLQKIFPGVNASGFNMSIPMPGHPVNFSDVTMEQARRDVEQLEELIDSHDVIFLLMDTRESRWLPTVIAASKRKLVINAALGFDTFVVMRHGLKKPKQQGAGDLCPSHLVAPADLGSSLFANIPGYKLGCYFCNDVVAPGDSTRDRTLDQQCTVSRPGLAVIAGALAVELMVSVLQHPEGGYAIASSSDDRMNEPPTSLGLVPHQIRGFLSRFDNVLPVSLAFDKCTACSSKVLDQYEQEGFTFLAKVFNSSHSFLEDLTGLTLLHQETQAAEIWDMSDEETV
B10: PSMA4 (protein, UniProt P21670 1-261)
chain: MSRRYDSRTTIFSPEGRLYQVEYAMEAIGHAGTCLGILANDGVLLAAERRNIHKLLDEVFFSEKIYKLNEDMACSVAGITSDANVLTNELRLIAQRYLLQYQEPIPCEQLVTALCDIKQAYTQFGGKRPFGVSLLYIGWDKHYGFQLYQSDPSGNYGGWKATCIGNNSAAAVSMLKQDYKEGEMTLKSALALAVKVLNKTMDVSKLSAEKVEIATLTRENGKTVIRVLKQKEVEQLIKKHEEEEAKAEREKKEKEQREKDK
B11: DNM2 (protein, UniProt P39052 1-870)
chain: MGNRGMEELIPLVNKLQDAFSSIGQSCHLDLPQIAVVGGQSAGKSSVLENFVGRDFLPRGSGIVTRRPLILQLIFSKTEYAEFLHCKSKKFTDFDEVRQEIEAETDRVTGTNKGISPVPINLRVYSPHVLNLTLIDLPGITKVPVGDQPPDIEYQIKDMILQFISRESSLILAVTPANMDLANSDALKLAKEVDPQGLRTIGVITKLDLMDEGTDARDVLENKLLPLRRGYIGVVNRSQKDIEGRKDIRAALAAERKFFLSHPAYRHMADRMGTPHLQKTLNQQLTNHIRESLPTLRSKLQSQLLSLEKEVEEYKNFRPDDPTRKTKALLQMVQQFGVDFEKRIEGSGDQVDTLELSGGARINRIFHERFPFELVKMEFDEKDLRREISYAIKNIHGVRTGLFTPDLAFEAIVKKQVVKLKEPCLKCVDLVIQELISTVRQCTSKLSSYPRLREETERIVTTYIREREGRTKDQILLLIDIEQSYINTNHEDFIGFANAQQRSTQLNKKRAIPNQGEILVIRRGWLTINNISLMKGGSKEYWFVLTAESLSWYKDEEEKEKKYMLPLDNLKIRDVEKGFMSNKHVFAIFNTEQRNVYKDLRQIELACDSQEDVDSWKASFLRAGVYPEKDQAENEDGAQENTFSMDPQLERQVETIRNLVDSYVAIINKSIRDLMPKTIMHLMINNTKAFIHHELLAYLYSSADQSSLMEESAEQAQRRDDMLRMYHALKEALNIIGDISTSTVSTPVPPPVDDTWLQNTSSHSPTPQRRPVSSVHPPGRPPAVRGPTPGPPLIPMPVGATSSFSAPPIPSRPGPQNVFANNDPFSAPPQIPSRPARIPPGIPPGVPSRRAPAAPSRPTIIRPAEPSLLD
B12: PSMA5 (protein, UniProt P34064 1-241)
chain: MFLTRSEYDRGVNTFSPEGRLFQVEYAIEGHKLGSTAIGIQTSEGVCLAVEKRITSPLMEPSSIEKIVEIDAHIGCAMSGLIADAKTLIDKARVETQNHWFTYNETMTVESVTQAVSNLALQFGEEDADPGAMSRPFGVALLFGGVDEKGPQLFHMDPSGTFVQCDARAIGSASEGAQSSLQEVYHKSTTLKEAIKSSLIILKQVMEEKLNATNIELATVQPGQNFHMFTKEELEEVIKDI
B13: AIP (protein, UniProt Q5FWY5 1-330)
chain: MADLIARLREDGIQKRVIQEGRGELPEFQDGTKATFHFRTLHSDPEGSVIDDSRARGKPMELIIGKKFKLPVWETIVRTMREGETAQFLCDVKHTVLYPLVAKSLRNIAEGKDPLEGQRHCCGIAQMHEHSSLGHADLDALQQNPQPLIFHIEMLKVESPGTYQQDPWAMTDEEKAKAVPLIHQEGNRLYREGQVKEAAAKYYDAIACLKNLQMKEQPGSPDWIQLDLQITPLLLNYCQCKLVAQEYYEVLDHCSSILNKYDDNVKAYFKRGKAHAAVWNAQEAQADFAKVLELDPALAPVVSRELRALEARIRQKDEEDKARFRGIFSH

Molecular target: Huntingtin-interacting protein 1 (rat) (rat (endogenous in rat FLS))
Test: affinity purification with mass spectrometry; rabbit anti-rat-HIP1 antibody (20 μg per sample) on Dynabeads M-270 Epoxy; total lysates of rat FLS (one DA and one R6 cell line, each in triplicate), starved 24 h, then PDGFβ 100 ng/mL 30 min; lysis in water with protease and phosphatase inhibitors by three freeze-thaw cycles; elution with 8 M urea, LysC and trypsin, nano-LC-MS/MS, label-free quantitation

binding, binds:
B1
B2
B3
B4
B5
B6
B7
B8
B9
B10
B11
B12
B13
